Reference: PubChem BioAssay AID1671190 (National Center for Advancing Translational Sciences (NCATS), 2021)
Hit rate of the full screen: of about 580,000 compounds, about 6,100 (1.1%) were called active. Inconclusive means that the source gave no clear call. Such entries were picked first, then a sample of the others. The call rests on the fitted dose curve; in most records, active means well fitted inhibition curve with a large enough effect; inconclusive means small, poorly fitted or top-dose-only effect, or another doubt; inactive means no such curve, though single readings can be large or run the other way. Potencies of inconclusive entries are doubtful fits and often do not repeat.

Protein sequences, listed by entry. Tags and fused reporters are not part of them. Lines headed by an entry give the natural chain unless they say otherwise; changes in a name come on top.
UniProt P18054: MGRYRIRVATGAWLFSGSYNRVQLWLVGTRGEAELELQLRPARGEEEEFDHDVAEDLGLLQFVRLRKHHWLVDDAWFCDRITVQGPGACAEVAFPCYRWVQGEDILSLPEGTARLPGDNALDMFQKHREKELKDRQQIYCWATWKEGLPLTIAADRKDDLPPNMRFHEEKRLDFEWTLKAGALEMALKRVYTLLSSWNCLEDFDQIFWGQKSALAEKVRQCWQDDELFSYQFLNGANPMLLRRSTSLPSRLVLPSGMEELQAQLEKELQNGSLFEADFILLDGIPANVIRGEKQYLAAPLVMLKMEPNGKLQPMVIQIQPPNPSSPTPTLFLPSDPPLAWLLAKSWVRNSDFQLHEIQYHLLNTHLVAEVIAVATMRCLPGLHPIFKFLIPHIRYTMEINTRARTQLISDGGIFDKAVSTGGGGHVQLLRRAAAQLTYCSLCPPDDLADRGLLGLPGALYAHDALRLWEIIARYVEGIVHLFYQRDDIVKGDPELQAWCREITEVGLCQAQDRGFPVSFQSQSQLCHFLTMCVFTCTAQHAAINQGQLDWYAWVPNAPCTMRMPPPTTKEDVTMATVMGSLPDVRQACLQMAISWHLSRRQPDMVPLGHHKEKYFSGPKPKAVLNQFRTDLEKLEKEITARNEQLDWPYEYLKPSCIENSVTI

The compounds below were run against Polyunsaturated fatty acid lipoxygenase ALOX12 (Homo sapiens) (UniProt P18054) (assay: Primary qHTS assay for inhibitors of human arachidonate 12S-lipoxygenase (ALOX12): Round 2). Conditions: purified 12hLO, xylenol orange hydroperoxide absorbance; activity change, negative = inhibition: at 108 µM (top of the series) unless noted.
Outline: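 Purified human 12hLO (150 nM final) in 25 mM Hepes, 0.01% Triton X-100, pH 7.0 was preincubated 15 min at room temperature with compound. Then 40 uM arachidonic acid was added, 30 min. Hydroperoxide was read by Fe-XO absorbance ratio 573/405 nm.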
On the % scale 0 is the no-effect control and ±100 the full control effect; potency means the concentration at half of the fitted maximal effect.

SMILES	Potency	activity change, negative = inhibition
O=C(CS(=O)(=O)c1ccccc1)c1ccc(Br)cc1	inactive	–
CCOc1ccc(CCNC(=O)CCNC(=O)c2ccco2)cc1OCC	inactive	–
FC(F)(F)c1nc2ccccc2n2c(-c3ccc(Cl)cc3)nnc12	inactive	–
Cc1cc(C)c(S(=O)(=O)n2cnc(C)c2)c(C)c1	inconclusive: 100 µM [inhibitor, partial curve, poor fit]	–
O=C(O)c1ccc(NS(=O)(=O)c2ccc3nnn(O)c3c2)cc1	inconclusive: 100 µM [inhibitor, partial curve, poor fit]	–
CCN(CC)C[C@H]1O[C@H](Cc2cc(-c3ccc(F)cc3)on2)CC[C@@H]1O	inactive	–
CN(C)CC(=O)N1CCC2(CC1)NCCc1c2[nH]c2ccccc12	inactive	–
Cc1c(S(=O)(=O)c2ccccc2)c(NC(=O)C(C)C)n(Cc2ccccc2)c1C	inactive	–
c1ccc(NCc2cccs2)cc1	inactive	–
COc1ccccc1N1CCN(C(=O)C[C@@H]2CCNC[C@@H]2Cc2cc(-c3ccc(F)cc3)on2)CC1	inactive	–
Cc1ccc(-c2ccc(=O)n(CC(=O)NCc3ccc(F)cc3)n2)cc1	inconclusive: 126 µM [inhibitor, partial curve, poor fit]	–
Cc1ccc2c(C)c(C(=O)NCC(c3cccs3)N3CCOCC3)oc2c1 (stereo not given)	–	inconclusive: -30.9% [inhibitor]
CC1CCCC(NC(=O)c2cccs2)C1C (stereo not given)	inactive	–
O=C1CCCCCN1Cc1nnc(SCc2nc3ccccc3s2)n1-c1ccccn1	inactive	–
CC1CCN(C(=O)CSc2nnc(-c3ccco3)n2N)CC1	inconclusive: 31.6 µM [inhibitor, single point]	–
Cc1c(S(=O)(=O)NC(C)c2ccccc2)c(=O)n(C)c(=O)n1C (stereo not given)	inconclusive: 50.1 µM [inhibitor, partial curve, poor fit]	–
O=C(O)CSCc1nc2ccccc2s1	inconclusive: 44.7 µM [inhibitor, partial curve, poor fit]	–
CCN(CC)C(=O)Oc1ccc(Cl)c2cccnc12	inactive	–
CC1CCC2(CC1)NC(=O)N(NC(=O)CCCc1c[nH]c3ccccc13)C2=O (stereo not given)	inconclusive: 44.7 µM [inhibitor, partial curve, poor fit]	–
Cc1oc(-c2ccc(Cl)cc2)cc1C(=O)N1CCC1(C)C(=O)O (stereo not given)	inconclusive: 44.7 µM [inhibitor, partial curve, poor fit]	–
CC(NS(=O)(=O)Cc1ccc(F)cc1)c1ccccn1 (stereo not given)	inconclusive: 20 µM [inhibitor, single point]	–
CC(C)C1CC(C)(C)c2ccc(O)cc21 (stereo not given)	inconclusive: 100 µM [inhibitor, partial curve, poor fit]	–
N#CC1=C(N)N(c2ccc(F)cc2)C2=C(C1c1ccc(O)cc1)S(=O)(=O)CC2 (stereo not given)	inconclusive: 44.7 µM [inhibitor, partial curve, poor fit]	–
COCCN1CCN(Cc2ccc(C#N)cc2)CC1	inactive	–

SMILES	Potency	activity change, negative = inhibition
COc1ccc(S[C@]2(C(=O)NCC(F)(F)F)CC(=O)N[C@@H]2c2ccc(OC)cc2)cc1	active: 31.6 µM	–
O=C(Cn1ccc(NC(=O)OCc2ccccc2)nc1=O)NCCCn1ccnc1	inconclusive: 39.8 µM [inhibitor, partial curve, poor fit]	–
COc1ccccc1CNC(=O)c1oc2ccccc2c1C	inactive	–
O=C1OC[C@H]2CCCN2C(=O)[C@@H](CC(=O)N(CCO)Cc2ccccc2)C/C=C\C[C@H]1Cc1ccc(F)cc1	inconclusive: 100 µM [inhibitor, single point]	–
S=C(NCCSc1ccc(Cl)cc1)NC1CCCC1	active: 28.2 µM	–
COc1cc(CN2CC(=O)N(c3ccccc3Cl)C2=S)cc(OC)c1OC	inactive	–
CN1/C(=C\C(=O)COC(=O)c2ccc(O)c(O)c2)C(C)(C)c2ccccc21	active: 10 µM	–
CC1(c2nc3ccccc3[nH]2)CCC(=O)N1Cc1ccc(F)cc1 (stereo not given)	inconclusive: 79.4 µM [inhibitor, partial curve, poor fit]	–
CN1C[C@@H](NC(=O)c2ccc(F)cc2)C[C@H]1c1nc(-c2ccc(OC(F)(F)F)cc2)no1	inactive	–
Cc1cccc(-n2c(Cc3cc(=O)[nH]c(=O)[nH]3)nnc2SCC(=O)NCC2CCCO2)c1 (stereo not given)	inconclusive: 10 µM [inhibitor, partial curve, poor fit]	–
CCOc1cc(C(=O)Nc2ccc(-c3nc4ncccc4o3)cc2C)cc(OCC)c1OCC	inconclusive: 100 µM [inhibitor, partial curve, poor fit]	–
O=C(CCn1c(=O)c2cccn2c2cccnc21)N1CCN(c2cccc(Cl)c2)CC1	inconclusive: 141 µM [inhibitor, partial curve, poor fit]	–
Cc1nc(Nc2ccc3c(c2)OCO3)c2oc3ccccc3c2n1	inconclusive: 7.08 µM [inhibitor, full curve, poor fit]	–
CC(=O)C[C@H]1SC[C@@H](C(C)C)N1S(=O)(=O)c1ccc(C)cc1	inactive	–
CC(=O)N1CCc2nc3sc(C(=O)Nc4ccc(F)cc4)c(N)c3c(C(F)(F)F)c2C1	inactive	–
CCNC(=O)CC1C(=O)N(C)C(=S)N1NC(=O)c1ccc(Cl)cc1 (stereo not given)	inconclusive: 44.7 µM [inhibitor, partial curve, poor fit]	–
CCC(=O)NCCCNC(=O)c1cc(-c2ccccc2)nc2ccccc12	inconclusive: 126 µM [inhibitor, single point]	–
Cc1cccc(C)c1NC(=O)CS(=O)CC(=O)NC1CCCc2ccccc21 (stereo not given)	inconclusive: 39.8 µM [inhibitor, single point]	–
COc1ccc2nc(NC(=S)N(C)C)sc2c1	active: 7.94 µM	–
Cc1ccc(Cl)cc1N1CCN(C(=O)Cc2c(C(=O)O)[nH]c3ccc(Cl)cc23)CC1	inconclusive: 50.1 µM [inhibitor, partial curve, poor fit]	–
N#CC1=C2CCCCC2(O)NC1=O (stereo not given)	inactive	–
O/N=C/c1ccc(OCc2c(Cl)cccc2Cl)cc1	inconclusive: 44.7 µM [inhibitor, partial curve]	–
Cc1cc(C)cc(NC(=O)C2CCN(C(=O)c3cccs3)CC2)c1	inconclusive: 100 µM [inhibitor, single point]	–
COc1ccc(C(=O)NC2(C(F)(F)F)NC(=O)N(c3ccc(Cl)cc3)C2=O)cc1OC (stereo not given)	inconclusive: 56.2 µM [inhibitor, partial curve, poor fit]	–

Quoted from the listing.
Entry of COc1ccccc1CNC(=O)c1oc2ccccc2c1C under Potency: inactive
Entry of CN1C[C@@H](NC(=O)c2ccc(F)cc2)C[C@H]1c1nc(-c2ccc(OC(F)(F)F)cc2)no1 under Potency: inactive
Entry of CCNC(=O)CC1C(=O)N(C)C(=S)N1NC(=O)c1ccc(Cl)cc1 (stereo not given) under Potency: inconclusive: 44.7 µM [inhibitor, partial curve, poor fit]
Entry of COc1ccc2nc(NC(=S)N(C)C)sc2c1 under Potency: active: 7.94 µM
Entry of COc1ccc(C(=O)NC2(C(F)(F)F)NC(=O)N(c3ccc(Cl)cc3)C2=O)cc1OC (stereo not given) under Potency: inconclusive: 56.2 µM [inhibitor, partial curve, poor fit]

More compounds follow.

SMILES	Potency	activity change, negative = inhibition
CCc1nnc(NS(=O)(=O)c2ccc(NC(=O)c3ccc(S(=O)(=O)N(CC)CC)cc3)cc2)s1	inactive	–
Cc1cncc(C(=O)N2CC(CO)C3(CCNCC3)C2)c1 (stereo not given)	inconclusive: 3.55 µM [inhibitor, full curve, poor fit]	–
Cc1cc(C)cc(-n2ccnc2SCC(=O)Nc2nccs2)c1	inconclusive: 25.1 µM [inhibitor, single point]	–
CCN(C(=O)COC(=O)/C=C/c1ccc(C)o1)c1c(N)n(Cc2ccccc2)c(=O)[nH]c1=O	inconclusive: 17.8 µM [inhibitor, full curve, poor fit]	–
Cc1ccc2c(CC(=O)N3CCN(c4ccccc4)CC3)coc2c1	inconclusive: 79.4 µM [inhibitor, partial curve, poor fit]	–
COc1cccc(SCC(=O)NCc2cc3n(n2)CCNC3)c1	inconclusive: 20 µM [inhibitor, single point]	–
Clc1nc(Nc2ccc(N3CCOCC3)cc2)c2ccccc2n1	inconclusive: 89.1 µM [inhibitor, partial curve, poor fit]	–
CCN(c1ccc(-c2csc(Cc3ccccc3)n2)cc1)S(C)(=O)=O	inconclusive: 63.1 µM [inhibitor, partial curve, poor fit]	–
CC(C)(C)c1csc(NC(=O)c2ccc3c(c2)OCCN(C2CCC2)C3)n1	inconclusive: 63.1 µM [inhibitor, full curve]	–
CCc1ccc(/C=C(/C#N)C(=O)c2c(C)[nH]c3ccccc23)cc1	active: 14.1 µM	–
CCN1CCN(C(=O)c2ccc3c(c2)N(Cc2cccc(F)c2)C(=O)c2ccccc2S3)CC1	inactive	–
N#Cc1cn(-c2ccccc2)nc1-c1ccc2c(c1)OCCO2	inconclusive: 5.01 µM [inhibitor, full curve, poor fit]	–
Cc1c(N2C(=O)/C(=C\c3ccccc3O)SC2=S)c(=O)n(-c2ccccc2)n1C	inconclusive: 15.8 µM [inhibitor, partial curve, poor fit]	–
CCOC(=O)c1cc(-c2ccc(C)cc2)n(CCC(=O)Nc2ccc(OC)c(OC)c2)c1C	inactive	–
O=C(O)c1ccccc1-c1ccccc1C(=O)Nc1nc2ccccc2s1	inconclusive: 126 µM [inhibitor, single point]	–
CCOc1cc(C#N)c(NC(=O)CSc2nnnn2-c2ccc(OC)cc2)cc1OCC	inconclusive: 0.282 µM [inhibitor, full curve, poor fit]	–
O=C(COC(=O)c1cc(=O)[nH]c2ccccc12)NCc1ccccc1Cl	inconclusive: 126 µM [inhibitor, single point]	–
CN1CCCCCC1=Nc1ccccc1C#N	inactive	–
O=C1C(C2=C(O)c3ccccc3C2=O)=Nc2ccccc21	inconclusive: 10 µM [inhibitor, full curve, poor fit]	–
COC(=O)C1=C(C)N(Cc2ccc(Cl)cc2)C(=S)NC1c1ccccc1 (stereo not given)	active: 39.8 µM	–
O=[N+]([O-])c1ccc(C2Nc3cccc4cccc(c34)N2)cc1	active: 39.8 µM	–
CN(Cc1ccc(Cl)cc1Cl)C(=O)CCNC(=O)Nc1ccccc1	inactive	–
